EP2270053A1 (U3 Pharma GmbH, dated 2011)
These are yes or no findings as the source states them, for the method shown. Some results given as binding are weak or reduced against the parent protein; the word gives no strength.

The chains behind the UniProt entries cited, without tags or fusion partners. Where a name states a change or a piece, a line headed by the entry shows the natural chain unless it says otherwise.
UniProt P30530: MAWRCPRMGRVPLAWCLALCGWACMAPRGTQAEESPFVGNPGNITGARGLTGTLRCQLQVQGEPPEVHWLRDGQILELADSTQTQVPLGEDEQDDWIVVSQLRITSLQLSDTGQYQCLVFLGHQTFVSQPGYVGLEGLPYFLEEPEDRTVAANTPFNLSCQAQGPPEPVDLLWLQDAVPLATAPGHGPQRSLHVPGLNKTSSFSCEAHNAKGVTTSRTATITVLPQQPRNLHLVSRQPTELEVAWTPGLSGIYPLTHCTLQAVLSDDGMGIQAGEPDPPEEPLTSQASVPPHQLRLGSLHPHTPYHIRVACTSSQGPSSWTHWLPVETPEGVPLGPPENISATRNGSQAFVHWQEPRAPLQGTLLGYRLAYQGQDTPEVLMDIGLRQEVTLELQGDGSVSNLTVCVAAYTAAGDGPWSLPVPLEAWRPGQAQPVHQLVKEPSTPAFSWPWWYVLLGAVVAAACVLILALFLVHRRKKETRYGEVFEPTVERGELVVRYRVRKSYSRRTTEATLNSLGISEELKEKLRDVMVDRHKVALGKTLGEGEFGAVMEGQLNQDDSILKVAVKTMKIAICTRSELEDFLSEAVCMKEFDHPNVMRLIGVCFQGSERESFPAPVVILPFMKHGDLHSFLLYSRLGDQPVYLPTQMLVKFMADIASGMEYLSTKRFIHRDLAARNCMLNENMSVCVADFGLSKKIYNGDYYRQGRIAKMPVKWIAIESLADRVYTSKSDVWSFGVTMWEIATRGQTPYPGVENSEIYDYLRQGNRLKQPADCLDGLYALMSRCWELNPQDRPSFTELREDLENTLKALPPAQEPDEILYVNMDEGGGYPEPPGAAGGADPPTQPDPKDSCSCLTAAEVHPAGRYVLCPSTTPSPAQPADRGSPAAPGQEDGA

B1: h#11B7-T2 (antibody, human IgG1, kappa, V domains shown)
VH: QIQLQESGPGLVKPSQTLSLTCAVSGYSITSNYWGWIRQPPGKGLEWMGYITYSGSTSYNPSLKSRISISVDTSKNQFSLKLSSVTAADTAVYYCAITTFYYWGQGTLVTVSS
VL: DIQMTQSPSSLSASVGDRVTITCRASQDIGNYLRWFQQKPGKAPKLMISGATNLAAGVPSRFSGTGSGTDYTFTISSLQPEDFATYYCLQSKESPWTFGGGTKVEIKR
B2: h#11B7-T3 (antibody, human IgG1, kappa, V domains shown)
VH: QVQLQESGPGLVKPSQTLSLTCAVSGYSITSNYWGWIRKPPGDGLEWMGYITYSGSTSYNPSLKSRISITRDTSKNQFSLKLSSVTAADTAVYYCAITTFYYWGQGTLVTVSS
VL: DIQMTQSPSSLSASVGDRVTITCRASQDIGNYLRWFQQKPGKAPKLMISGATNLAAGVPSRFSGSRSGSDYTLTISSLQPEDFATYYCLQSKESPWTFGGGTKVEIKR
B3: h#11B7-T19 (antibody, human IgG1, kappa, V domains shown)
VH: QVQLQESGPGLVKPSETLSLTCTVSGYSITSNYWGWIRQPPGKGLEWMGYITYSGSTSYNPSLKSRITISRDTSKNQFSLKLSSVTAADTAVYYCAITTFYYWGQGTLVTVSS
VL: DIQMTQSPSSLSASVGDRVTITCRASQDIGNYLRWYQQKPGKAPKLMISGATNLAAGVPSRFSGSGSGSDFTLTISSLQPEDFATYYCLQSKESPWTFGQGTKVEIKR
B4: h#11B7-T8 (antibody, human IgG1, kappa, V domains shown)
VH: QVQLQESGPGLVKPSETLSLTCTVSGYSITSNYWGWIRQPPGKGLEWIGYITYSGSTSYNPSLKSRVSISRDTSKNQFSLKLSSVTAADTAVYYCAITTFYYWGQGTLVTVSS
VL: DIQMTQSPSSLSASVGDRVTITCRASQDIGNYLRWFQQKPGKAPKLLISGATNLAAGVPSRFSGSGSGSDYTLTISSLQPEDFATYYCLQSKESPWTFGQGTKVEIKR
B5: h#11B7-T24 (antibody, human IgG1, kappa, V domains shown)
VH: QVQLQESGPGLVKPSETLSLTCTVSGYSITSNYWGWIRQPPGKGLEWIGYITYSGSTSYNPSLKSRVTISRDTSKNQFSLKLSSVTAADTAVYYCAITTFYYWGQGTLVTVSS
VL: DIQMTQSPSSLSASVGDRVTITCRASQDIGNYLRWYQQKPGKAPKLLISGATNLAAGVPSRFSGSGSGSDYTLTISSLQPEDFATYYCLQSKESPWTFGQGTKVEIKR
B6: h#11B7-T23 (antibody, human IgG1, kappa, V domains shown)
VH: QVQLQESGPGLVKPSETLSLTCTVSGYSITSNYWGWIRQPPGKGLEWIGYITYSGSTSYNPSLKSRVTISRDTSKNQFSLKLSSVTAADTAVYYCAITTFYYWGQGTLVTVSS
VL: DIQMTQSPSSLSASVGDRVTITCRASQDIGNYLRWFQQKPGKAPKLMISGATNLAAGVPSRFSGSGSGSDFTLTISSLQPEDFATYYCLQSKESPWTFGQGTKVEIKR
B7: h#11B7-T17 (antibody, human IgG1, kappa, V domains shown)
VH: QVQLQESGPGLVKPSETLSLTCTVSGYSITSNYWGWIRQPPGKGLEWMGYITYSGSTSYNPSLKSRITISRDTSKNQFSLKLSSVTAADTAVYYCAITTFYYWGQGTLVTVSS
VL: DIQMTQSPSSLSASVGDRVTITCRASQDIGNYLRWYQQKPGKAPKLLISGATNLAAGVPSRFSGSGSGSDYTLTISSLQPEDFATYYCLQSKESPWTFGQGTKVEIKR
B8: h#11B7-T15 (antibody, human IgG1, kappa, V domains shown)
VH: QVQLQESGPGLVKPSETLSLTCTVSGYSITSNYWGWIRQPPGKGLEWMGYITYSGSTSYNPSLKSRITISRDTSKNQFSLKLSSVTAADTAVYYCAITTFYYWGQGTLVTVSS
VL: DIQMTQSPSSLSASVGDRVTITCRASQDIGNYLRWFQQKPGKAPKLLISGATNLAAGVPSRFSGSGSGSDYTLTISSLQPEDFATYYCLQSKESPWTFGQGTKVEIKR
B9: h#11B7-T21 (antibody, human IgG1, kappa, V domains shown)
VH: QVQLQESGPGLVKPSETLSLTCTVSGYSITSNYWGWIRQPPGKGLEWIGYITYSGSTSYNPSLKSRVTISRDTSKNQFSLKLSSVTAADTAVYYCAITTFYYWGQGTLVTVSS
VL: DIQMTQSPSSLSASVGDRVTITCRASQDIGNYLRWYQQKPGKAPKLMISGATNLAAGVPSRFSGSGSGSDYTLTISSLQPEDFATYYCLQSKESPWTFGQGTKVEIKR
B10: h#11B7-T25 (antibody, human IgG1, kappa, V domains shown)
VH: QVQLQESGPGLVKPSETLSLTCTVSGYSITSNYWGWIRQPPGKGLEWIGYITYSGSTSYNPSLKSRVTISRDTSKNQFSLKLSSVTAADTAVYYCAITTFYYWGQGTLVTVSS
VL: DIQMTQSPSSLSASVGDRVTITCRASQDIGNYLRWFQQKPGKAPKLLISGATNLAAGVPSRFSGSGSGSDFTLTISSLQPEDFATYYCLQSKESPWTFGQGTKVEIKR
B11: h#11B7-T12 (antibody, human IgG1, kappa, V domains shown)
VH: QVQLQESGPGLVKPSETLSLTCTVSGYSITSNYWGWIRQPPGKGLEWIGYITYSGSTSYNPSLKSRVSISRDTSKNQFSLKLSSVTAADTAVYYCAITTFYYWGQGTLVTVSS
VL: DIQMTQSPSSLSASVGDRVTITCRASQDIGNYLRWYQQKPGKAPKLMISGATNLAAGVPSRFSGSGSGSDFTLTISSLQPEDFATYYCLQSKESPWTFGQGTKVEIKR
B12: h#11B7-T18 (antibody, human IgG1, kappa, V domains shown)
VH: QVQLQESGPGLVKPSETLSLTCTVSGYSITSNYWGWIRQPPGKGLEWMGYITYSGSTSYNPSLKSRITISRDTSKNQFSLKLSSVTAADTAVYYCAITTFYYWGQGTLVTVSS
VL: DIQMTQSPSSLSASVGDRVTITCRASQDIGNYLRWFQQKPGKAPKLLISGATNLAAGVPSRFSGSGSGSDFTLTISSLQPEDFATYYCLQSKESPWTFGQGTKVEIKR
B13: h#11B7-T22 (antibody, human IgG1, kappa, V domains shown)
VH: QVQLQESGPGLVKPSETLSLTCTVSGYSITSNYWGWIRQPPGKGLEWIGYITYSGSTSYNPSLKSRVTISRDTSKNQFSLKLSSVTAADTAVYYCAITTFYYWGQGTLVTVSS
VL: DIQMTQSPSSLSASVGDRVTITCRASQDIGNYLRWFQQKPGKAPKLLISGATNLAAGVPSRFSGSGSGSDYTLTISSLQPEDFATYYCLQSKESPWTFGQGTKVEIKR
B14: h#11B7-T26 (antibody, human IgG1, kappa, V domains shown)
VH: QVQLQESGPGLVKPSETLSLTCTVSGYSITSNYWGWIRQPPGKGLEWIGYITYSGSTSYNPSLKSRVTISRDTSKNQFSLKLSSVTAADTAVYYCAITTFYYWGQGTLVTVSS
VL: DIQMTQSPSSLSASVGDRVTITCRASQDIGNYLRWYQQKPGKAPKLMISGATNLAAGVPSRFSGSGSGSDFTLTISSLQPEDFATYYCLQSKESPWTFGQGTKVEIKR
B15: h#11B7-T14 (antibody, human IgG1, kappa, V domains shown)
VH: QVQLQESGPGLVKPSETLSLTCTVSGYSITSNYWGWIRQPPGKGLEWMGYITYSGSTSYNPSLKSRITISRDTSKNQFSLKLSSVTAADTAVYYCAITTFYYWGQGTLVTVSS
VL: DIQMTQSPSSLSASVGDRVTITCRASQDIGNYLRWYQQKPGKAPKLMISGATNLAAGVPSRFSGSGSGSDYTLTISSLQPEDFATYYCLQSKESPWTFGQGTKVEIKR
B16: h#11B7-T10 (antibody, human IgG1, kappa, V domains shown)
VH: QVQLQESGPGLVKPSETLSLTCTVSGYSITSNYWGWIRQPPGKGLEWIGYITYSGSTSYNPSLKSRVSISRDTSKNQFSLKLSSVTAADTAVYYCAITTFYYWGQGTLVTVSS
VL: DIQMTQSPSSLSASVGDRVTITCRASQDIGNYLRWYQQKPGKAPKLLISGATNLAAGVPSRFSGSGSGSDYTLTISSLQPEDFATYYCLQSKESPWTFGQGTKVEIKR
B17: h#11B7-T16 (antibody, human IgG1, kappa, V domains shown)
VH: QVQLQESGPGLVKPSETLSLTCTVSGYSITSNYWGWIRQPPGKGLEWMGYITYSGSTSYNPSLKSRITISRDTSKNQFSLKLSSVTAADTAVYYCAITTFYYWGQGTLVTVSS
VL: DIQMTQSPSSLSASVGDRVTITCRASQDIGNYLRWFQQKPGKAPKLMISGATNLAAGVPSRFSGSGSGSDFTLTISSLQPEDFATYYCLQSKESPWTFGQGTKVEIKR
B18: h#11B7-T20 (antibody, human IgG1, kappa, V domains shown)
VH: QVQLQESGPGLVKPSETLSLTCTVSGYSITSNYWGWIRQPPGKGLEWMGYITYSGSTSYNPSLKSRITISRDTSKNQFSLKLSSVTAADTAVYYCAITTFYYWGQGTLVTVSS
VL: DIQMTQSPSSLSASVGDRVTITCRASQDIGNYLRWYQQKPGKAPKLLISGATNLAAGVPSRFSGSGSGSDFTLTISSLQPEDFATYYCLQSKESPWTFGQGTKVEIKR
B19: h#11B7-T11 (antibody, human IgG1, kappa, V domains shown)
VH: QVQLQESGPGLVKPSETLSLTCTVSGYSITSNYWGWIRQPPGKGLEWIGYITYSGSTSYNPSLKSRVSISRDTSKNQFSLKLSSVTAADTAVYYCAITTFYYWGQGTLVTVSS
VL: DIQMTQSPSSLSASVGDRVTITCRASQDIGNYLRWFQQKPGKAPKLLISGATNLAAGVPSRFSGSGSGSDFTLTISSLQPEDFATYYCLQSKESPWTFGQGTKVEIKR
B20: h#11B7-T13 (antibody, human IgG1, kappa, V domains shown)
VH: QVQLQESGPGLVKPSETLSLTCTVSGYSITSNYWGWIRQPPGKGLEWIGYITYSGSTSYNPSLKSRVSISRDTSKNQFSLKLSSVTAADTAVYYCAITTFYYWGQGTLVTVSS
VL: DIQMTQSPSSLSASVGDRVTITCRASQDIGNYLRWYQQKPGKAPKLLISGATNLAAGVPSRFSGSGSGSDFTLTISSLQPEDFATYYCLQSKESPWTFGQGTKVEIKR
B21: h#11B7-T7 (antibody, human IgG1, kappa, V domains shown)
VH: QVQLQESGPGLVKPSETLSLTCTVSGYSITSNYWGWIRQPPGKGLEWIGYITYSGSTSYNPSLKSRVSISRDTSKNQFSLKLSSVTAADTAVYYCAITTFYYWGQGTLVTVSS
VL: DIQMTQSPSSLSASVGDRVTITCRASQDIGNYLRWYQQKPGKAPKLMISGATNLAAGVPSRFSGSGSGSDYTLTISSLQPEDFATYYCLQSKESPWTFGQGTKVEIKR
B22: h#11B7-T9 (antibody, human IgG1, kappa, V domains shown)
VH: QVQLQESGPGLVKPSETLSLTCTVSGYSITSNYWGWIRQPPGKGLEWIGYITYSGSTSYNPSLKSRVSISRDTSKNQFSLKLSSVTAADTAVYYCAITTFYYWGQGTLVTVSS
VL: DIQMTQSPSSLSASVGDRVTITCRASQDIGNYLRWFQQKPGKAPKLMISGATNLAAGVPSRFSGSGSGSDFTLTISSLQPEDFATYYCLQSKESPWTFGQGTKVEIKR

Target: Human AXL-Fc (R&D Systems, #154-AL) (human) (UniProt P30530)
Test: ELISA, human AXL-Fc coated plate, 1 µg/ml to 0.00256 ng/ml antibody

binding, binds:
B1
B2
B3
B4
B5
B6
B7
B8
B9
B10
B11
B12
B13
B14
B15
B16
B17
B18
B19
B20
B21
B22
